Measurements reported in PubChem BioAssay AID1259405 (NCATS, 2018).
The deposit covers about 50,000 reagents; below is an unselected part. About 4,000 of all reagents (8%) were called active. 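Mouse siRNA library applied to hamster cells; one well for each siRNA.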 No sequences are given here.

Screen: 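Silenced genes that increase secreted GFP made by CHO cells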 (primary screen)
Cells: Chinese hamster CHO-K1 ovary cells with stable secreted eGFP expression
Reagents: single siRNA against mouse genes, 0.8 pmol siRNA per well (2 µl of 400 nM stock)
Duration: 3 days
Detection: 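Percent of the per-plate non-targeting control median for intracellular GFP per well by laser scanning cytometry and for cell viability by ATP luminescence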
Scale: GFP, % of control: higher = more GFP per well, higher productivity; viability (ATP), % of control: higher = more viable cells (more ATP)
Rule for the call: 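Called active when intracellular GFP, relative to negative control, is at or above 120%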

gene knocked down | PubChem SID | GFP, % of control | viability (ATP), % of control | Outcome
Med31 | SID363543775 | 62.3 | 76.7 | inactive
Med31 | SID363551511 | 55.1 | 73.5 | inactive
Med31 | SID363559116 | 57.4 | 65.5 | inactive
Zfp846 | SID363555493 | 43.9 | 65.9 | inactive
Zfp846 | SID363564154 | 82.3 | 82.8 | inactive
Zfp846 | SID363587700 | 62.7 | 84.7 | inactive
P2ry13 | SID363571256 | 111 | 67.8 | inactive
P2ry13 | SID363571608 | 103 | 57.4 | inactive
P2ry13 | SID363571960 | 84.5 | 86.6 | inactive
Iqgap1 | SID363570188 | 83.1 | 71 | inactive
Iqgap1 | SID363576524 | 65.8 | 58.9 | inactive
Iqgap1 | SID363579692 | 124 | 85 | active
Ncf4 | SID363562129 | 101 | 72.2 | inactive
Ncf4 | SID363567267 | 80.4 | 84.4 | inactive
Ncf4 | SID363584624 | 37 | 45.8 | inactive
Krt73 | SID363540939 | 41.5 | 51.1 | inactive
Krt73 | SID363555566 | 67 | 71.3 | inactive
Krt73 | SID363565855 | 47.2 | 58.5 | inactive
Fam170a | SID363539995 | 84.5 | 81.4 | inactive
Fam170a | SID363561296 | 78.5 | 68.6 | inactive
Fam170a | SID363564332 | 65 | 71.6 | inactive
Ss18 | SID363545841 | 41.9 | 56.6 | inactive
Ss18 | SID363549354 | 78.1 | 93.5 | inactive
Ss18 | SID363563160 | 55.6 | 48.5 | inactive
Atp4a | SID363569931 | 111 | 92.7 | inactive
Atp4a | SID363576971 | 98 | 73 | inactive
Atp4a | SID363578379 | 95.1 | 84.2 | inactive
Synpr | SID363582464 | 90.1 | 114 | inactive
Synpr | SID363584224 | 84.1 | 79.3 | inactive
Dph1 | SID363539597 | 105 | 108 | inactive
Dph1 | SID363560898 | 102 | 112 | inactive
Dph1 | SID363564988 | 132 | 77.2 | active
Zeb2 | SID363556686 | 79.8 | 95 | inactive
Zeb2 | SID363563590 | 70.9 | 51 | inactive
Zeb2 | SID363587136 | 88.4 | 94.3 | inactive
Nkx2-2 | SID363569468 | 80 | 71.2 | inactive
Nkx2-2 | SID363577212 | 57.2 | 62.8 | inactive
Nkx2-2 | SID363578620 | 43.6 | 62.1 | inactive
Sp7 | SID363573819 | 100 | 72.1 | inactive
Sp7 | SID363581563 | 75.1 | 78.6 | inactive
Sp7 | SID363584027 | 81 | 96.8 | inactive
Fam53c | SID363543702 | 88.9 | 99.6 | inactive
Fam53c | SID363551438 | 38 | 78.2 | inactive
Fam53c | SID363559043 | 82.5 | 76.1 | inactive
Saxo4 | SID363542480 | 76.8 | 49.8 | inactive
Saxo4 | SID363551971 | 45.3 | 68.2 | inactive
Saxo4 | SID363559576 | 89.5 | 88.8 | inactive
Amigo3 | SID363575053 | 95.2 | 54.8 | inactive
Amigo3 | SID363580685 | 64.8 | 69.8 | inactive
Amigo3 | SID363582797 | 0 | 116 | inactive
Rpl35a | SID363554015 | 78.1 | 70.3 | inactive
Rpl35a | SID363561972 | 106 | 65.4 | inactive
Rpl35a | SID363565710 | 22 | 24.8 | inactive
Hacl2 | SID363570383 | 70.3 | 126 | inactive
Hacl2 | SID363579183 | 67.4 | 69.4 | inactive
Hacl2 | SID363583055 | 98.7 | 127 | inactive
Or6c216 | SID363554770 | 75.9 | 87 | inactive
Or6c216 | SID363568217 | 72.4 | 83.2 | inactive
Or6c216 | SID363586276 | 51.9 | 63.7 | inactive
Rps6kb1 | SID363547330 | 142 | 77.2 | active
Rps6kb1 | SID363558099 | 91.3 | 85.7 | inactive
Rps6kb1 | SID363559857 | 90.1 | 95.4 | inactive
Or8k40 | SID363554338 | 127 | 83.5 | active
Or8k40 | SID363567785 | 67.9 | 77.1 | inactive
Or8k40 | SID363585142 | 30.8 | 89.5 | inactive
Muc1 | SID363541406 | 62.1 | 73.7 | inactive
Muc1 | SID363556033 | 68.5 | 62.6 | inactive
Muc1 | SID363566322 | 53.1 | 75.7 | inactive
Or1e21 | SID363554221 | 56.6 | 62.1 | inactive
Or1e21 | SID363567668 | 104 | 96.6 | inactive
Or1e21 | SID363585025 | 64.5 | 85.7 | inactive
Trpv2 | SID363574821 | 71.9 | 73.6 | inactive
Trpv2 | SID363575877 | 50 | 53.6 | inactive
Trpv2 | SID363580453 | 83.7 | 85.5 | inactive
Fat1 | SID363573380 | 55.3 | 62.4 | inactive
Fat1 | SID363588619 | 99.4 | 91.5 | inactive
Ofcc1 | SID363562150 | 74.2 | 48.2 | inactive
Ofcc1 | SID363567288 | 82.2 | 90.8 | inactive
Ofcc1 | SID363584645 | 98.9 | 69.6 | inactive
Mrgpre | SID363544121 | 11.3 | 11 | inactive
Mrgpre | SID363550449 | 79 | 83.8 | inactive
Mrgpre | SID363556998 | 77 | 91.1 | inactive
Rnaset2b | SID363569642 | 97.1 | 99.1 | inactive
Rnaset2b | SID363577386 | 131 | 49.9 | active
Rnaset2b | SID363578794 | 105 | 92.2 | inactive
